The values that follow come from the supplement of paper PMC6331611.

± gives the standard deviation of the averaged measurements. The full ranking holds about 1,600 compounds; the median of “normalized growth (OD600, IQM-normalized) in LPM” is about 1, and the lowest 2% start at about 0.014. This is one part of the list.

The assay has as its system Salmonella enterica serovar Typhimurium SL1344. The experiment in a line: normalized growth (OD600, IQM-normalized) in LPM (fraction of plate interquartile mean); higher = more bacterial growth (less inhibition). The conditions noted are these: LPM pH 5.8; 10 µM; 16 h.
Consider `N=C(N)NC(=O)Cc1c(Cl)cccc1Cl`, for which the normalized growth is 1.17 ± 0.04.
The same measure for `N[C@@H](Cc1cc(I)c(Oc2cc(I)c(O)c(I)c2)c(I)c1)C(=O)O`: 1.03 ± 0.039; for `C[n+]1cc2c3c(ccc2c2ccc4cc5c(cc4c21)OCO5)OCO3`: 1.87 ± 0.19; for `Nc1ncnc2c1ncn2[C@@H]1O[C@H](CO)[C@@H](O)[C@H]1O`: 0.924 ± 0.041.
The same measure for `Clc1ccc(CSC(Cn2ccnc2)c2ccc(Cl)cc2Cl)cc1` (stereo not given): 0.693 ± 0.022; for `CC(=O)O[C@@]12CO[C@@H]1C[C@H](O)[C@@]1(C)C(=O)[C@H](O)C3=C(C)[C@@H](OC(=O)[C@H](O)[C@@H](NC(=O)OC(C)(C)C)c4ccccc4)C[C@@](O)([C@@H](OC(=O)c4ccccc4)[C@H]21)C3(C)C`: 1.47 ± 0.11.
The same measure for `C=CC1=C(C)c2cc3[nH]c(cc4nc(cc5[nH]c(cc1n2)c(C)c5CCC(=O)O)C(CCC(=O)O)=C4C)c(C)c3C=C`: 1.05 ± 0.04; for `CN(C)CCN(Cc1ccccc1)c1ccccn1`: 0.906 ± 0.035.
Consider `CN1C(=O)CC(c2ccccc2)C1=O` (stereo not given), for which the normalized growth was 1.04 ± 0.091.
Next, `CCN(CC)C(=O)c1cccc(C)c1`: 1.03 ± 0.03.
Next, `CCN(CC)C(=O)c1cccnc1`: 1.14 ± 0.095.
Next, `CCCN(CCC)S(=O)(=O)c1ccc(C(=O)O)cc1`: 0.918 ± 0.046; `C[C@]12CC[C@@H]3c4ccc(O)cc4CC[C@H]3[C@@H]1CC[C@@H]2O`: 1.15 ± 0.065; `CN(C)CC/C=C1/c2ccccc2Sc2ccc(Cl)cc21`: 1.11 ± 0.012.
The compound `CN(C)CCOC(c1ccccc1)c1ccccc1` displayed a normalized growth of 0.998 ± 0.038.
Turning to `COc1ccc2[nH]c([S+]([O-])Cc3ncc(C)c(OC)c3C)nc2n1` (stereo not given), the normalized growth was 0.792 ± 0.058.
The same measure for `CC1=C(/C=C/C(C)=C/C=C/C(C)=C/C(=O)O)C(C)(C)CCC1`: 0.951 ± 0.06; for `NC[C@@H]1CC[C@@H](N)[C@@H](O[C@H]2[C@H](O)[C@@H](O[C@H]3O[C@H](CO)[C@@H](O)[C@H](N)[C@H]3O)[C@H](N)C[C@@H]2N)O1`: 0.966 ± 0.085.
Next, `N=C(N)NS(=O)(=O)c1ccc(N)cc1`: 1.02 ± 0.067; `CC(=O)Oc1ccccc1C(=O)O`: 0.748 ± 0.067.
The compound `Cc1ncc(CO)c(CO)c1O` gave a normalized growth of 1.08 ± 0.056.
The same measure for `CC1(C)[C@H](C(=O)O)N2C(=O)C[C@H]2S1(=O)=O`: 1.08 ± 0.038; for `COc1cc2c3cc1Oc1cc(ccc1O)C[C@@H]1c4c(cc(OC)c(O)c4Oc4ccc(cc4)C[C@@H]3N(C)CC2)CC[N+]1(C)C`: 1.1 ± 0.013; for `COc1cc(C(=O)NCCCCCC(=O)O)cc(OC)c1OC`: 1.05 ± 0.076.
For `N[C@@H](CCC(=O)N[C@@H](CS)C(=O)NCC(=O)O)C(=O)O`, the normalized growth stood at 1.04 ± 0.057.
The same measure for `CC1=C(C(=O)O)N2C(=O)[C@@H](NC(=O)[C@H](N)C3=CCC=CC3)[C@H]2SC1`: 0.985 ± 0.054; for `N[C@@H]1CONC1=O`: 1 ± 0.038; for `CCCCC(CC)CCC(CC(C)C)OS(=O)(=O)O` (stereo not given): 0.798 ± 0.03.
The same measure for `O=C(O)COCCN1CCN(C(c2ccccc2)c2ccc(Cl)cc2)CC1` (stereo not given): 1.04 ± 0.034; for `Clc1ccc(CO/N=C(\Cn2ccnc2)c2ccc(Cl)cc2Cl)c(Cl)c1`: 1.01 ± 0.057; for `CC(=O)O[C@]1(C(C)=O)CC[C@H]2[C@@H]3C=C(Cl)C4=CC(=O)[C@@H]5C[C@@H]5[C@]4(C)[C@H]3CC[C@@]21C`: 0.991 ± 0.011.
Next, `O=C1c2ccccc2C(=O)C1c1ccc(Cl)cc1`: 1.09 ± 0.019.
For `COc1ccc2cc([C@H](C)CO)ccc2c1`, the normalized growth came to 1.15 ± 0.059.
Next, `C#C[C@]1(OC(C)=O)CC[C@H]2[C@@H]3CCC4=CC(=NO)CC[C@@H]4[C@H]3CC[C@@]21CC` (mixture of isomers): 1.01 ± 0.049; `COc1cc2nc(N(C)CCCNC(=O)C3CCCO3)nc(N)c2cc1OC` (stereo not given): 1.09 ± 0.051; `Clc1ccc(Cn2c(CN3CCCC3)nc3ccccc32)cc1`: 1.07 ± 0.05.
The same measure for `CCCCCCCCCCCCCCCC(=O)OC[C@@H](NC(=O)C(Cl)Cl)[C@H](O)c1ccc([N+](=O)[O-])cc1`: 1.04 ± 0.082; for `Cc1cc(C(C)(C)C)c(O)c(C(C)(C)C)c1`: 0.938 ± 0.087; for `C#CCN[C@@H]1CCc2ccccc21`: 1.09 ± 0.063.
As for `CCOc1nc2cccc(C(=O)OCc3oc(=O)oc3C)c2n1Cc1ccc(-c2ccccc2-c2noc(=O)[nH]2)cc1`, the normalized growth came to 0.827 ± 0.052.
The same measure for `O=C(O)c1cn(C2CC2)c2cc(N3CCNCC3)c(F)cc2c1=O`: 0.0145 ± 0.0063; for `CC(=O)[C@@]1(O)CC[C@H]2[C@@H]3C[C@H](C)C4=CC(=O)C=C[C@]4(C)[C@@]3(F)[C@@H](O)C[C@@]21C`: 0.582 ± 0.039; for `CCc1nc(N)nc(N)c1-c1ccc(Cl)cc1`: 0.929 ± 0.046.
Next, `C1CCC(C(CC2CCCCN2)C2CCCCC2)CC1` (stereo not given): 1 ± 0.043; `CN1CC(=O)N2[C@H](c3ccc4c(c3)OCO4)c3[nH]c4ccccc4c3C[C@@H]2C1=O`: 1.19 ± 0.024.
`CCC/C=C\C=C/C(=O)N[C@@H](CC(N)=O)C(=O)NC(CC(N)=O)C(=O)N[C@@H](C(=O)N[C@H](CCCN)C(=O)N[C@@H](C(=O)N[C@@H](C(=O)N[C@@H](C(=O)N[C@H](C(=O)N[C@@H](Cc1ccccc1)C(=O)N[C@H](CCCN)C(=O)NC(C(=O)N[C@H](C(=O)NC(C(=O)NCC(=O)N[C@@H](CC(C)C)C(=O)N[C@H](C)C(=O)NC(C(=O)O)C1CCC(O)C(Cl)C1)C1CCC(O)CC1)[C@H](C)O)C1CCC(O)CC1)[C@H](C)O)C1CCC(O)CC1)C1CCC(O)CC1)[C@H](C)O)C1CCC(O)CC1` (stereo not given in full) [RAMOPLANIN [A2 shown; 2mM]] showed a normalized growth of 1.31 ± 0.07.
Next, `COc1cc(C(=O)NCc2ccc(OCCN(C)C)cc2)cc(OC)c1OC`: 1.59 ± 0.16; `C[C@](N)(Cc1ccc(O)c(O)c1)C(=O)O`: 1.1 ± 0.042; `Clc1ccc(C(Cn2ccnc2)OCc2ccsc2Cl)c(Cl)c1` (stereo not given): 1.04 ± 0.037.
`C[C@H]1c2cccc(O)c2C(=O)C2=C(O)[C@]3(O)C(=O)C(C(N)=O)=C(O)[C@@H](N(C)C)[C@@H]3[C@@H](O)[C@@H]21` returned a normalized growth of 0.0125 ± 0.00056.
The same measure for `O=C1/C(=C/c2cccs2)CCC/C1=C\c1cccs1`: 1.19 ± 0.041; for `CCOC(=O)COc1ccc2c(=O)cc(-c3ccccc3)oc2c1`: 1.01 ± 0.035; for `Cc1ccc(NC(=O)c2ccc(CN3CCN(C)CC3)cc2)cc1Nc1nccc(-c2cccnc2)n1`: 0.922 ± 0.042.
The same measure for `O=C(O)C(=O)O.[NH-][C@@H]1CCCC[C@H]1[NH-].[Pt+2]`: 0.742 ± 0.017; for `Cc1onc(-c2ccccc2Cl)c1C(=O)N[C@@H]1C(=O)N2[C@@H]1SC(C)(C)[C@@H]2C(=O)O`: 1.15 ± 0.022; for `CN[C@@H]1[C@H](O)[C@H](NC)[C@H]2O[C@@]3(O)C(=O)C[C@@H](C)O[C@H]3O[C@@H]2[C@H]1O`: 0.972 ± 0.042.
Next, `NS(=O)(=O)c1cc2c(cc1Cl)NC(C(Cl)Cl)NS2(=O)=O` (stereo not given): 0.94 ± 0.12.
As to `CCCCCCCCCCCCCCCCCCCCCCO`, the normalized growth turned out to be 1.11 ± 0.1.
For `CC(=O)NC(Cc1ccccc1)C(=O)O` (stereo not given), the normalized growth worked out at 0.957 ± 0.064.
Next, `COc1ccc(O)cc1`: 0.93 ± 0.038; `CCCCCCOC(=O)NC(=N)c1ccc(NCc2nc3cc(C(=O)N(CCC(=O)OCC)c4ccccn4)ccc3n2C)cc1`: 0.957 ± 0.054; `NCCCC(=O)O` [gamma-AMINOBUTYRIC ACID]: 0.983 ± 0.046.
`C[C@@H]1NC(=O)[C@@H](N)CNC(=O)[C@H](C2CCNC(=N)N2)NC(=O)/C(=C/NC(N)=O)NC(=O)[C@H](CNC(=O)CC(N)CCCN)NC1=O.N=C1NCC[C@H]([C@@H]2NC(=O)/C(=C/NC(N)=O)NC(=O)[C@H](CNC(=O)C[C@@H](N)CCCN)NC(=O)[C@H](CO)NC(=O)[C@@H](N)CNC2=O)N1`: the normalized growth was 0.985 ± 0.046.
Next, `CC12CCC(CC1=O)C2(C)C` (stereo not given): 0.973 ± 0.024; `CN[C@@H]1[C@@H](O[C@H]2O[C@H](CO)[C@@H](N)[C@H](O)[C@H]2O)OC2C[C@@H](N)[C@@H](O[C@H]3[C@H](O)[C@@H](O)[C@H](N)C[C@@H]3N)OC2[C@@H]1O` (stereo not given in full): 1.08 ± 0.042.
Next, `O=C(O)CCNC(=O)c1ccccc1`: 1.1 ± 0.049; `O=C(N[C@H](CO)[C@H](O)c1ccc([N+](=O)[O-])cc1)C(Cl)Cl`: 0.0146 ± 0.00075.
The same measure for `CCC[C@@H]1C[C@@H](C(=O)N[C@@H]([C@H]2O[C@H](SC)[C@H](O)[C@@H](O)[C@H]2O)[C@H](C)Cl)N(C)C1`: 1.18 ± 0.03; for `C[n+]1c2cc(N)ccc2cc2ccc(N)cc21`: 0.862 ± 0.023; for `CC1=NN(c2ccccc2)C(=O)C1`: 0.902 ± 0.026.
On to `Cn1cnc2c1c(=O)[nH]c(=O)n2C`, for which the normalized growth was 0.992 ± 0.019.
The same measure for `CC(C)(CO)C(O)C(=O)NCCCO` (stereo not given): 0.985 ± 0.02; for `CCOc1ccc2ccccc2c1C(=O)N[C@@H]1C(=O)N2[C@@H]1SC(C)(C)[C@@H]2C(=O)O`: 0.96 ± 0.074; for `CCN(CC)CCNC(=O)c1cc(Cl)c(N)cc1OC`: 1.11 ± 0.024.
The same measure for `OCc1cccnc1`: 1.22 ± 0.021; for `CC(C)[N+](C)(CCOC(=O)C1c2ccccc2Oc2ccccc21)C(C)C`: 1.037 ± 0.0044.
The same measure for `CN1CCC[C@@H]1Cc1c[nH]c2ccc(CCS(=O)(=O)c3ccccc3)cc12`: 0.907 ± 0.065.
`CN(C)CCC=C1c2ccccc2COc2ccccc21` registered a normalized growth of 1.08 ± 0.054.
`Cc1cccc(C)c1OCC(C)N` (stereo not given): the normalized growth was 1.07 ± 0.054.
As to `CN1[C@@H]2CC[C@H]1C[C@@H](OC(=O)c1c[nH]c3ccccc13)C2`, the normalized growth stood at 1.09 ± 0.077.
Next, `CC(=O)[C@H]1CC[C@H]2[C@@H]3C=CC4=CC(=O)CC[C@@]4(C)[C@@H]3CC[C@]12C`: 1.04 ± 0.014; `Cc1cc(=O)[nH]c(=S)[nH]1`: 1.16 ± 0.029.
The same measure for `COc1ccccc1OCC(O)CO` (stereo not given): 1.01 ± 0.042; for `CC[C@]1(O)C[C@H]2CN(CCc3c([nH]c4ccccc34)[C@@](C(=O)OC)(c3cc4c(cc3OC)N(C=O)[C@H]3[C@@](O)(C(=O)OC)[C@H](OC(C)=O)[C@]5(CC)C=CCN6CC[C@]43[C@@H]65)C2)C1`: 1.03 ± 0.037.
Next, `NC[C@@H]1O[C@H](O[C@H]2[C@@H](O)[C@H](O[C@@H]3[C@@H](O)[C@H](N)C[C@H](N)[C@H]3O[C@H]3O[C@H](CO)[C@@H](O)[C@H](O)[C@H]3N)O[C@@H]2CO)[C@H](N)[C@@H](O)[C@@H]1O`: 1.07 ± 0.027; `Cc1c(N(C)C)c(=O)n(-c2ccccc2)n1C`: 0.954 ± 0.035.
In turn, `Oc1c(Cl)cc(Cl)c(Cl)c1Cc1c(O)c(Cl)cc(Cl)c1Cl` came in with a normalized growth of 1 ± 0.093.
`CCOC(=O)C1=C(COCCN)NC(C)=C(C(=O)OC)C1c1ccccc1Cl` (stereo not given) displayed a normalized growth of 0.992 ± 0.031.
Next, `COc1ccc(/C=C/C(=O)Nc2ccccc2C(=O)O)cc1OC`: 1.05 ± 0.054; `CN(C)C(=O)C(CCN1CCC(O)(c2ccc(Cl)cc2)CC1)(c1ccccc1)c1ccccc1`: 0.959 ± 0.047.
